Laboratory results: a protein production outcome set (Wang et al. 2014)

test: label from the status in PepcDB records

Sequence | protein production
IFAEYIAIQACKEVNLDSYTREHTKDNLQSVTRGCFDLAQKRIFGLMEKDSYPRFLRSDLYLDLINQKKMSPPL | failed
MAGEIQDPFSLSFQGNSIHSGSISFGRFEKEGLSWEKRSSFSHNRYLEEVDKCSKPGSVTEMKAHFEAHFKKKGIRFPASLESQTWGVHQTSNEPDDEAVHATESFEDYRSDGSFSEDTSQSNSVCNYSHEQEKCGQGKSQCEFDEESDHCVSYDEILVNSDEVIELDEEEGGGDHGRVADLVECENLGPPEMPQEIVIQDSALVEEAGSKLDEHASKKPSNSMETPSSSVNVKPIIPNDVRVTKASTKGHDVTPKAASRRTKGSSLSSNSKTNVDAKSQKELRPKKTIESQPKSSNKTETRPPIATNRCKTSTTSSKLEMSTGSTSFRFKCSERAEKRKEFYMKLEEKIHAKKTETNQVQAKTQQKAEAEIKQFRKSLNFKATPMPSFYNIGTRPVSHNKTEPSKVAQSRSRPATSASITNRAVTRVSYKHGFEEAEMVKVMVSNRKQSAAKDSDLQKGNLMAVEMKQQIGARRSRN | failed
MAKDKDITETLLTAAEERSDLPFLSVDDIPPITTVGGFVREFNVETKKLWYLAGPAIFTSVNQYSLGAITQVFAGHISTIALAAVSVENSVVAGFSFGIMLGMGSALETLCGQAFGAGKLSMLGVYLQRSWVILNVTALILSLLYIFAAPILASIGQTAAISSAAGIFSIYMIPQIFAYAINFPTAKFLQSQSKIMVMAVISAVALVIHVPLTWFVIVKLQWGMPGLAVVLNASWCFIDMAQLVYIFSGTCGEAWSGFSWEAFHNLWSFVRLSLASAVMLCLEVWYFMAIILFAGYLKNAEISVAALSICMNILGWTAMIAIGMNTAVSVRVSNELGANHPRTAKFSLLVAVITSTLIGFIVSMILLIFRDQYPSLFVKDEKVIILVKELTPILALSIVINNVQPVLSGVAVGAGWQAVVAYVNIACYYVFGIPFGLLLGYKLNYGVMGIWCGMLTGTVVQTIVLTWMICKTNWDTEASMAEDRIREWGGEVSEIKQLIN | failed
MAYKFRTHSPEALEQLYPWECFVFCLIIFGTFTNQIHKWSHTYFGLPRWVTLLQDWHVILPRKHHRIHHVSPHETYFCITTGVKVPRNFRLLEELEEGQKGVGDGTVSWGLEDDEDMTLTRWTGMIIGPPRTIYENRIYSLKIECGPKYPEAPPFVRFVTKINMNGVNSSNGVVDPRAISVLAKWQNSYSIKVVLQELRRLMMSKENMKLPQPPEGQCYSN | failed
MDLVGDRTPQLPEQVVRMKYFAMPPMTIQEALEHLEMVDHDFYVFRNRDTGEINVVYERNHGGYGVLEHHHHHH | failed
MDPAASSCMRSLQPPAPVWGCLRNPHSEGNGASGLPHYPPTPFSFHQKPDFLATATAAYPDFSASCLAATPHSLPQEEHIFTEQHPAFPQSPNWHFPVSDARRRPNSGPAGGSKEMGTSSLGLVDTTGGPGDDYGVLGSTANETEKKSSRRRKESSDNQENRGKPEGSSKARKERTAFTKEQLRELEAEFAHHNYLTRLRRYEIAVNLDLSERQVKVWFQNRRMKWKRVKGGQPISPNGQDPEDGDSTASPSSE | not failed
MDQANSVPLSADEQREARRLQYLSWERVAADLDHPAHLARKAELRRSCGAELAETSYIAENAAIFTESLTMGEWSWIAGHALVRGDVILGEHCSINPYACVSGKVTCGNGVRIASHASIVGFNHGFDDPDRPIHRQGVVSIGIIIGDDVWIGANCVILDGVTIGNGAVIAAGAVVTQDIPSLAIAGGVPAKVLRNRGAPARKSAVRDIEDQLARLGQKAKEQWPDILAHWKTSEGYESLEADGVRRPSIRHLCDAIEIAAGFGHPPPGLDPAQTLERLQGLQDRETGLFPEAHSRVEGRALRVDPKALYNVLSVGYALELLGSGPQQPIQAVQIDAPELEQWLSALPWSSRAWHAGSVVDTIGTAMYFNARHFGIRGPRQALFEWLSRNADSVSGLWGEPTALEGWLQPVNGFYRLTRGTYAQFGMPLPHPHAALEAVHLNYRNHNGFVGGQYNACNLLDTIHPLLLIARQTDYRRADGEAIARSLISRAPDRWRDGEGFPFADGGEPSLQGTEMWLSVVHLAADFLGLADQFAFVPKGVHRTATPGLGL | failed
MEMVHADVASLSITPCFPSSLSSSSHHHYNQQQHCIMSEDQHHSMDQTTSSDYFSLNIDNAQHLRSYYTSHREEDMNPNLSDYSNCNKKDTTVYRSCGHSSKASVSRGHWRPAEDTKLKELVAVYGPQNWNLIAEKLQGRSGKSCRLRWFNQLDPRINRRAFTEEEEERLMQAHRLYGNKWAMIARLFPGRTDNSVKNHWHVIMARKFREQSSSYRRRKTMVSLKPLINPNPHIFNDFDPTRLALTHLASSDHKQLMLPVPCFPGYDHENESPLMVDMFETQMMVGDYIAWTQEATTFDFLNQTGKSEIFERINEEKKPPFFDFLGLGTV | failed
MGDTGRTPLATARGAGRTQAGSKSPARGAPGNTGDDHSRTTHVHARKRFEQRGEGRGSHVEGDRRGPGGGKDARITCRGPELRGHVRPEAGPPRRGRGARLPAAVGGVGRRAEGACPGGGGGAILAKGGSGSADRGGGGARSGGRRLPARRPRSGAERRMQQPQPQGQQQPGPGQQLGVQGAAPGAGGGPGGGPGPGPCLRRELKLLESIFHRGHERFRIASACLDELSCEFLLAGAGGAGAGAAPGPHLPSRGSVPGDPVRIHCNITESYPAVPPIWSVESDDPNLAAVLERLVDIKKGNTLLLQHLKRIISDLCKLYNLPQHPDVEMLDQPLPAEQNSCTQEEVSSEDEDEEMPEDTEDLDHYEMKEEEPAEGKKSEDDGIGKENLAILEKIKKNQRQDYLNGAVSGSVQATDRLMKELRDIYRSQSFKGGNYAVELVNDSLYDWNVKLLKVDQDSALHNDLQILKEKEGADFILLNFSFKDNFPFDPPFVRVVSPVLSGGYVLGGGAICMELLTKQGWSSAYSIESVIMQISATLVKGKARVQFGANKSQYSLTRAQQSYKSLVQIHEKNGWYTPPKEDG | failed
MHMDSVPPSPFPYPTPGTCGLLRLSPPPVSPRVTLAFPKVGKILRLPAQSDTVWNTLPHQLTPSSSCQPLRLLGYPPCAAVGLPLCCSEVGPGGLTQFPTQSTATSSAVGHGFQPPNPVAWSADHTRPVHTTLSSFLFSGTTQSPDLRPSVSGSGICLGSWPPSPPPNPSPALSFTPLLSTHSQWRDPAETARLARSGLFRPVIDVPESTASEQPEKGRRSRRGEEYSSPSLLPLPPTLALLRTSPSSLTAAWSGDCLRAPTRCPGSPAQRAPAPGPPRGAGASMEHLGPHHLHPGHAEPISFGIDQILNSPDQGGCMGPASRLQDGEYGLGCLVGGAYTYGGGGSAAGAGAGGTGAYGTGGPGGPGGPAGGGGGACSMGPLAGSYNVNMALAGGPGPGGGGGGAGAGGAGALSAAGVIRVPAHRPLAGAVAHPQPLATGLPTVPSVPAVPGVNNLTGLTFPWMESNRRYTKDRFTGHPYQNRTPPKKKKPRTSFTRLQICELEKRFHRQKYLASAERAALAKALKMTDAQVKTWFQNRRTKWRRQTAEEREAERQQANRILLQLQQEAFQKSLAQPLPADPLCVHNSSLFALQNLQPWSDDSTKITSVTSVASACE | failed
MKTSEERLLAPDSLPPDLAPAPVPQGSPAEKNTDFEPVPPPCGGDDQPQLATDPVASLVVSQELQQGDSVPLEVEFNTSSELSPGIEEQDVSEHASLPGEETNLPELESGEATEGVSEERAEVDEGDTFWTYSFSQVPRYLSGSWSEFSTRSENFLKGCKWAPDGSCILTNSADNVLRIYNLPPELYSEQEQVDYAEMVPVLRMVEGDTIYDYCWYSLMSSTQPDTSYVASSSRENPIHIWDAFTGELRASFRAYNHLDELTAAHSLCFSPDGSQLFCGFNRTVRVFSTSRPGRDCEVRATFAKKQGQSGIISCIAFSPSQPLYACGSYGRTIGLYAWDDGSPLALLGGHQGGITHLCFHPDGNLFFSGARKDAELLCWDLRQPGHLLWSLSREVTTNQRIYFDLDPSGQFLVSGNTSGVVSVWDISGALSDDSKLEPVVTFLPQKDCTNGVSLHPTLPLLATASGQRVFPEPTNSGDEGELELELPLLSLCHAHPECQLQLWWCGGGPDPSSPVDDQDEKGQRRTEAVGMS | failed
MNETLYCSFCKKPESRDPKKRRIIFASNLNKDVCVCEYCIDVMHGELHKYDNSLLALKRDRLRRMESSAYEEEFLLSYIPAPKELKAVLDNYVIGQEQAKKVFSVAVYNHYKRLSFKEKLKKQDNQDSNVELEHLEEVELSKSNILLIGPTGSGKTLMAQTLAKHLDIPIAISDATSLTEAGYVGEDVENILTRLLQASDWNVQKAQKGIVFIDEIDKISRLSENRSITRDVSGEGVQQALLKIVEGSLVNIPPKGGRKHPEGNFIQIDTSDILFICAGAFDGLAEIIKKRTTQNVLGFTQEKMSKKEQEAILHLVQTHDLVTYGLIPELIGRLPVLSTLDSISLEAMVDILQKPKNALIKQYQQLFKMDEVDLIFEEEAIKEIAQLALERKTGARGLRAIIEDFCLDIMFDLPKLKGSEVRITKDCVLKQAEPLIIAKTHSKILP | failed
MPVFPAGGGPLLTGGAAVHISASGAAKATLYCRVFLLDGTEVSVDLPKHAKGQDLFDQIVYHLDLVETDYFGLQFLDSAQVTHWLDHSKPIKKQMKVGPAYALHFRVKYYSSEPNNLREEFTRYLFVLQLRHDILSGKLKCPYETAVELAALCLQAELGECELPEHTPELVSEFRFIPNQTEAMEFDIFQRWKEYRGKSPAQAELSYLNKAKWLEMYGVDMHVVRGRDGCEYSLGLTPTGILIFEGANKIGLFFWPKITKMDFKKSKLTLVVVEDDDQGREQEHTFVFRLDSARTCKHLWKCAVEHHAFFRLRTPSNSKSARSDFIRLGSRFRFSGRTEYQATHGSRLRRTSTFERKPSKRYPSRRHSTFKASNPVIAAQLCSKTNPEVHNYQPQFHPNVHPSQPRWRPHSPNVSNHSTCKQNKPSFQDDRPHWKASASGDDGHFDYVHDQNQRNLGGAYSVTYRDKLMTAL | failed
MRPTSGITLGGRFQLTSRIAIGGMGEVWKAKDQILGRIVAIKVLKEEYTGDPGFLQRFRAEARHTALLNHVGIANVFDYGEEAGSAYLVMELVPGHPLSGILEREQVLSPDMTLSIISQTARALAVAHAQGLVHRDIKPGNLLITPDNRVKVTDFGIARLADQVPLTQTGQVMGTAQYLAPEQATGQTATGSSDIYSLGVIGYECLTGHRPFSGESQIAIALAQVNDAPPPLPETLPTPVRALLMSMLAKDPKNRPANAIKLAEAAEAIRNGDIATAHAAVPGMLLFESTTGPITAPVDTATAPTGVVTSPYGKEQSTTATSALPVLGAGAAGAALGAAAASDNPLTRANALEAERQLSDDEEVVYTDDENYDDAEPERKKRSPWTWPLVALILLVLFALVGFLISQSGFFSPSPAPSESTTTSASRSASPTSASATPTPRPTETSEAPQPTQSVPQKINVIPEQYQGQPFETVSAQLRALGLGVDGQEVFDDTAPVGIVTGLNPTGPVNPGETITVTYSKGPELVAVPAIAPGVDEARVQQAIEGAGLQWVAGEPVNGAIGQQPGTFVRSSPAAGSQVAAGSTVTYYLSKELVPIDPGTSTATPTGTGSPSR | failed
MRSKGRARKLATNNECVYGNYPEIPLEEMPDADGVASTPSLNIQEPCSPATSSEAFTPKEGSPYKAPIYIPDDIPIPAEFELRESNMPGAGLGIWTKRKIEVGEKFGPYVGEQRSNLKDPSYGWEVHLPRSRRVSVHSWLYLGKRSSDVGIAFSQADVYMPGLQCAFLS | failed
MSAAFPPSLMMMQRPLGSSTAFSIDSLIGSPPQPSPGHFVYTGYPMFMPYRPVVLPPPPPPPPALPQAALQPALPPAHPHHQIPSLPTGFCSSLAQGMALTSTLMATLPGGFSASPQHQEAAAARKFAPQPLPGGGNFDKAEALQADAEDGKGFLAKEGSLLAFSAAETVQASLVGAVRGQGKDESKVEDDPKGKEESFSLESDVDYSSDDNLTGQAAHKEEDPGHALEETPPSSGAAGSTTSTGKNRRRRTAFTSEQLLELEKEFHCKKYLSLTERSQIAHALKLSEVQVKIWFQNRRAKWKRVKAGNANSKTGEPSRNPKIVVPIPVHVSRFAIRSQHQQLEQARP | failed
